This is one part of the list. Many values rest on one well or one pass, so single values are uncertain.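 Imaging used 1,536-well plates; nuclei positive for cleaved PARP by antibody were divided by total DNA-stained nuclei to yield the apoptosis fraction. Doses for screening kept most cells viable, and cell lines differ markedly in resting and induced cleaved-PARP levels.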
tested on: G361; assay: cleaved PARP positive nuclei fraction relative to DMSO control; melanoma cells; higher = more apoptosis; conditions: library dose: low library concentration; 72 h

Row | Structure (SMILES) | cleaved PARP positive nuclei fraction [%]
1 | C[As](C)SC[C@H](NC(=O)CC[C@H](N)C(=O)O)C(=O)NCC(=O)O [Darinaparsin] + CCN(CC)CCCCNc1ncc2cc(-c3cc(OC)cc(OC)c3)c(NC(=O)NC(C)(C)C)nc2n1 [PD173074] (first compound 0.4 µM, partner dose 0.1 µM) | 122
2 | Cc1cc(SCc2sc(-c3ccc(C(F)(F)F)c(F)c3)nc2C)ccc1OCC(=O)O + C/C(O)=C(\C#N)C(=O)Nc1cc(Br)ccc1Br [LFM-A13] (first compound 2 µM, partner dose 2 µM) | 103
3 | O=C(Nc1cccc(Cl)c1)Nc1ncc(CCNc2ncnc3ccsc23)s1 + O=C(Oc1ccc([N+](=O)[O-])cc1)N1CCC(C(O)(c2ccc3c(c2)OCO3)c2ccc3c(c2)OCO3)CC1 [JZL184] (first compound 0.0008 µM, partner dose 1 µM) | 190
4 | COc1cc2c(Oc3ccc4[nH]c(C)cc4c3F)ncnc2cc1OCCCN1CCCC1 [cediranib] + Cc1cc(SCc2sc(-c3ccc(C(F)(F)F)c(F)c3)nc2C)ccc1OCC(=O)O [GW0742] (first compound 0.4 µM, partner dose 2 µM) | 22.1
5 | CC1(C)NC(=O)N(c2ccc([N+](=O)[O-])c(C(F)(F)F)c2)C1=O [nilutamide] + Cc1cc(SCc2sc(-c3ccc(C(F)(F)F)c(F)c3)nc2C)ccc1OCC(=O)O [GW0742] (first compound 1 µM, partner dose 2 µM) | 30.9
6 | COC(=O)c1sccc1S(=O)(=O)Nc1ccc(Nc2ccccc2)cc1OC + O=C(Oc1ccc([N+](=O)[O-])cc1)N1CCC(C(O)(c2ccc3c(c2)OCO3)c2ccc3c(c2)OCO3)CC1 [JZL184] (first compound 1 µM, partner dose 1 µM) | 86.9
7 | C[As](C)SC[C@H](NC(=O)CC[C@H](N)C(=O)O)C(=O)NCC(=O)O [Darinaparsin] + COc1ccc(COc2ccc(Cc3cnc(N)nc3N)cc2OC)cc1 [GW2580] (first compound 0.4 µM, partner dose 1 µM) | 74
8 | Cn1nnc2c(C(N)=O)ncn2c1=O [temozolomide] + C/C(O)=C(\C#N)C(=O)Nc1cc(Br)ccc1Br [LFM-A13] (first compound 2 µM, partner dose 2 µM) | 75.4
9 | Cc1cc(SCc2sc(-c3ccc(C(F)(F)F)c(F)c3)nc2C)ccc1OCC(=O)O + Oc1nc(-c2ccc(C(F)(F)F)cc2)nc2c1CSCC2 [XAV939] (first compound 2 µM, partner dose 2 µM) | 84.3
10 | C/C(O)=C(\C#N)C(=O)Nc1cc(Br)ccc1Br + CC(C)CCN1c2nc(Nc3cc(F)c(O)c(F)c3)ncc2N(C)C(=O)C1C [BID1870] (first compound 2 µM, partner dose 0.2 µM) | 152
11 | Cc1cc(SCc2sc(-c3ccc(C(F)(F)F)c(F)c3)nc2C)ccc1OCC(=O)O + c1cc(-c2cnn3cc(-c4ccc(OCCN5CCCCC5)cc4)cnc23)ccn1 [Dorsomorphin] (first compound 2 µM, partner dose 0.4 µM) | 108
12 | c1cc(-c2cnn3cc(-c4ccc(OCCN5CCCCC5)cc4)cnc23)ccn1 [Dorsomorphin] + O=C(Oc1ccc([N+](=O)[O-])cc1)N1CCC(C(O)(c2ccc3c(c2)OCO3)c2ccc3c(c2)OCO3)CC1 [JZL184] (first compound 0.4 µM, partner dose 1 µM) | 121
13 | C[As](C)SC[C@H](NC(=O)CC[C@H](N)C(=O)O)C(=O)NCC(=O)O [Darinaparsin] + CCCCCCCCCCCC1=C(O)C(=O)C=C(O)C1=O [Embelin] (first compound 0.4 µM, partner dose 1.2 µM) | 52.2
14 | COCC[n+]1c2c(n(Cc3cnccn3)c1C)C(=O)c1ccccc1C2=O + Cc1cc(SCc2sc(-c3ccc(C(F)(F)F)c(F)c3)nc2C)ccc1OCC(=O)O [GW0742] (first compound 0.0004 µM, partner dose 2 µM) | 29.1
15 | C/C(O)=C(\C#N)C(=O)Nc1cc(Br)ccc1Br + Cn1cc(/C=C2\C(=O)Nc3cccnc32)c2ccccc21 [GW441756] (first compound 2 µM, partner dose 0.4 µM) | 148
16 | C[As](C)SC[C@H](NC(=O)CC[C@H](N)C(=O)O)C(=O)NCC(=O)O [Darinaparsin] + Cc1cc(SCc2sc(-c3ccc(C(F)(F)F)c(F)c3)nc2C)ccc1OCC(=O)O [GW0742] (first compound 0.4 µM, partner dose 2 µM) | 76

Row | Structure (SMILES) | cleaved PARP positive nuclei fraction [%]
17 | OCCn1cc(-c2cnc3nnn(Cc4ccc5ncccc5c4)c3n2)cn1 + Cc1cc(SCc2sc(-c3ccc(C(F)(F)F)c(F)c3)nc2C)ccc1OCC(=O)O [GW0742] (first compound 1 µM, partner dose 2 µM) | 90.6
18 | Cc1ccc(NC(=O)c2cccc(N(C)C)c2)cc1NC(=O)c1ccc(O)cc1 + C/C(O)=C(\C#N)C(=O)Nc1cc(Br)ccc1Br [LFM-A13] (first compound 2 µM, partner dose 2 µM) | 78.1
19 | Cc1cc(SCc2sc(-c3ccc(C(F)(F)F)c(F)c3)nc2C)ccc1OCC(=O)O + Cc1cc([N+](=O)[O-])ccc1NS(=O)(=O)c1cc(Cl)ccc1Cl [FH535] (first compound 2 µM, partner dose 1 µM) | 26.8
20 | Cn1cncc1[C@@](N)(c1ccc(Cl)cc1)c1ccc2c(c1)c(-c1cccc(Cl)c1)cc(=O)n2C [tipifarnib] + C/C(O)=C(\C#N)C(=O)Nc1cc(Br)ccc1Br [LFM-A13] (first compound 0.01 µM, partner dose 2 µM) | 68.7
21 | Oc1nc(-c2ccc(C(F)(F)F)cc2)nc2c1CSCC2 + O=C(Oc1ccc([N+](=O)[O-])cc1)N1CCC(C(O)(c2ccc3c(c2)OCO3)c2ccc3c(c2)OCO3)CC1 [JZL184] (first compound 2 µM, partner dose 1 µM) | 79.1
22 | O=C(O)c1ccc(-c2c[nH]c3ncc(-c4ccccc4)cc23)cc1C1CCCC1 + Cc1cc(SCc2sc(-c3ccc(C(F)(F)F)c(F)c3)nc2C)ccc1OCC(=O)O [GW0742] (first compound 0.16 µM, partner dose 2 µM) | 51.8
23 | Cn1cncc1[C@@](N)(c1ccc(Cl)cc1)c1ccc2c(c1)c(-c1cccc(Cl)c1)cc(=O)n2C [tipifarnib] + Cc1cc(SCc2sc(-c3ccc(C(F)(F)F)c(F)c3)nc2C)ccc1OCC(=O)O [GW0742] (first compound 0.01 µM, partner dose 2 µM) | 93.3
24 | CC(C)(C)c1cnc(CSc2cnc(NC(=O)C3CCNCC3)s2)o1 + C/C(O)=C(\C#N)C(=O)Nc1cc(Br)ccc1Br [LFM-A13] (first compound 0.01 µM, partner dose 2 µM) | 76
25 | C#Cc1cccc(Nc2ncnc3cc(OCCOC)c(OCCOC)cc23)c1 [erlotinib] + O=C(Oc1ccc([N+](=O)[O-])cc1)N1CCC(C(O)(c2ccc3c(c2)OCO3)c2ccc3c(c2)OCO3)CC1 [JZL184] (first compound 0.8 µM, partner dose 1 µM) | 142
26 | CC(C)(C)c1cnc(CSc2cnc(NC(=O)C3CCNCC3)s2)o1 + Cc1cc(SCc2sc(-c3ccc(C(F)(F)F)c(F)c3)nc2C)ccc1OCC(=O)O [GW0742] (first compound 0.01 µM, partner dose 2 µM) | 68.8
27 | NCC(=O)Nc1ccc(-n2nc(C(F)(F)F)cc2-c2ccc3c(ccc4ccccc43)c2)cc1 + O=C(Oc1ccc([N+](=O)[O-])cc1)N1CCC(C(O)(c2ccc3c(c2)OCO3)c2ccc3c(c2)OCO3)CC1 [JZL184] (first compound 1 µM, partner dose 1 µM) | 59.8
28 | NCC(=O)Nc1ccc(-n2nc(C(F)(F)F)cc2-c2ccc3c(ccc4ccccc43)c2)cc1 + C/C(O)=C(\C#N)C(=O)Nc1cc(Br)ccc1Br [LFM-A13] (first compound 1 µM, partner dose 2 µM) | 108
29 | COc1cc(Nc2ncc(F)c(Nc3ccc4c(n3)NC(=O)C(C)(C)O4)n2)cc(OC)c1OC [Tamatinib] + O=C(Oc1ccc([N+](=O)[O-])cc1)N1CCC(C(O)(c2ccc3c(c2)OCO3)c2ccc3c(c2)OCO3)CC1 [JZL184] (first compound 0.4 µM, partner dose 1 µM) | 103
30 | O=C(O)C(=O)Nc1sc2c(c1C(=O)O)CCNC2 + O=C(Oc1ccc([N+](=O)[O-])cc1)N1CCC(C(O)(c2ccc3c(c2)OCO3)c2ccc3c(c2)OCO3)CC1 [JZL184] (first compound 1.66667 µM, partner dose 1 µM) | 132
31 | Cc1cc(SCc2sc(-c3ccc(C(F)(F)F)c(F)c3)nc2C)ccc1OCC(=O)O + O=C(Oc1ccc([N+](=O)[O-])cc1)N1CCC(C(O)(c2ccc3c(c2)OCO3)c2ccc3c(c2)OCO3)CC1 [JZL184] (first compound 2 µM, partner dose 1 µM) | 57.2

Random excerpt: two entries already listed, in no set order.
Row | Structure (SMILES) | cleaved PARP positive nuclei fraction [%]
19 | Cc1cc(SCc2sc(-c3ccc(C(F)(F)F)c(F)c3)nc2C)ccc1OCC(=O)O + Cc1cc([N+](=O)[O-])ccc1NS(=O)(=O)c1cc(Cl)ccc1Cl [FH535] (first compound 2 µM, partner dose 1 µM) | 26.8
20 | Cn1cncc1[C@@](N)(c1ccc(Cl)cc1)c1ccc2c(c1)c(-c1cccc(Cl)c1)cc(=O)n2C [tipifarnib] + C/C(O)=C(\C#N)C(=O)Nc1cc(Br)ccc1Br [LFM-A13] (first compound 0.01 µM, partner dose 2 µM) | 68.7
